Laboratory results from PubChem BioAssay AID1347076 (National Center for Advancing Translational Sciences (NCATS), 2019).
Among all 400,000 compounds or so, about 13,000 (3.2%) were called active. Inconclusive means that the source gave no clear call. Such entries were picked first, then a sample of the others. Calls follow the shape of the dose curve; as a rule, active = well fitted cell-killing curve with a large enough effect; inconclusive = small, poorly fitted or top-dose-only effect, or effect the other way; inactive = flat fitted curve, though single readings scatter. Where the call is inconclusive, the potency comes from a doubtful curve fit.

assay: qHTS assay for MDR1-selective chemotherapeutics: Primary screen using the drug-selected MDR subline cells KB-V1; conditions: KB-V1 MDR cells viability, CellTiter-Glo, 72 h; activity change, negative = cytotoxicity: at 46.1 µM (top of the series); also: nearly all actives have a fitted effect of over 60% in size
Outline: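 KB-V1 MDR subline cells in DMEM (phenol-red free, 10% FBS) exposed to compounds in qHTS concentration series for 72 h at 37 degrees C. Viability read by CellTiter-Glo luminescence; concentration-effect curves fitted after normalization and correction.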
% is scaled to controls: 0 for no effect and ±100 for the full control effect; potency is read from the fitted curve at half-maximal effect.

Structure (SMILES)	Potency	activity change, negative = cytotoxicity
Cc1ccc(C(=O)N(Cc2nc3ccccc3c(=O)[nH]2)C2CCCC2)cc1	inconclusive: 29.1 µM [cytotoxic, single point]	
CCc1nc2c(OCCOc3ccc(F)cc3)cccn2c1N(C=O)Cc1ccc(OC)cc1	active: 18.4 µM	
CCC(C)NC(=O)c1cnn2c1NC(c1ccc3c(c1)OCO3)CC2C(F)(F)F (stereo not drawn)	inconclusive: 18.4 µM [cytotoxic, single point]	
Cc1csc(SCC(=O)c2cc(C)n(Cc3cccs3)c2C)n1	inconclusive: 20.6 µM [cytotoxic, partial curve, poor fit]	
CCOC(=O)c1c(C)[nH]c(C(=O)N2CCc3cc(OC)c(OC)cc3C2)c1C	inconclusive: 7.31 µM [cytotoxic, partial curve]	
O=C(c1ccco1)c1cn(CCOc2ccc(Cl)cc2)c2ccccc12	inconclusive: 18.4 µM [rising, single point]	
O=C(CCC(=O)Nc1nnc(C2CCCCC2)s1)Nc1ccccc1	inconclusive: 23.1 µM [rising, single point]	
O=S(=O)(c1ccc(N2CCN(CCO)CC2)nc1)N1CCOCC1	inconclusive: 29.1 µM [cytotoxic, single point]	
CCOC(=O)N1CCN(Cc2ccc3ccccc3c2)CC1	inconclusive: 29.1 µM [cytotoxic, single point]	
CC(=O)c1ccc(NC(=O)Cn2c3ncccc3c(=O)n2-c2ccc(C)cc2)cc1	inconclusive: 32.6 µM [cytotoxic, single point]	
COc1ccc(OCC(O)CN2CCc3ccccc3C2)cc1 (stereo not drawn)	inconclusive: 20.6 µM [rising, partial curve, poor fit]	
COCCN(C(=O)c1cc(-c2ccc(F)cc2)nc2ccccc12)c1c(N)n(CC(C)C)c(=O)[nH]c1=O		inconclusive: 9.16%
CCSCCc1nnc(NC(=O)Nc2cccc(C(F)(F)F)c2)s1	inconclusive: 2.59 µM [cytotoxic, partial curve, poor fit]	
CCOC(=O)c1[nH]ncc1CN1CCc2ccc(NC(=O)C3CCCO3)cc2C1 (stereo not drawn)	inconclusive: 18.4 µM [cytotoxic, partial curve]	
O=C(NC1CCCC1)C(c1ccccc1)N(C(=O)c1ccco1)C1CCCC1 (stereo not drawn)	inconclusive: 9.2 µM [cytotoxic, partial curve]	
Cc1ccc(S(=O)(=O)N2C[C@H]3C(=O)C[C@@H](c4ccccc4)N(S(=O)(=O)c4ccc(C)cc4)[C@H]3C[C@H]2c2cccc(C)c2)cc1	inactive	
CC(=O)C1=C(C)OC(N)=C(C#N)C1c1cccnc1 (stereo not drawn)	inconclusive: 10.3 µM [rising, partial curve, poor fit]	
Cc1ccc(C(=O)Nc2ccc(SC(F)F)cc2)s1	inconclusive: 29.1 µM [cytotoxic, single point]	
Cc1ccc(OCC(=O)Nc2cc(C(=O)O)cc(C(=O)O)c2)cc1C	inactive	
CCC(=O)N1CCc2cc(CNC(=O)Nc3ccc(OC)cc3OC)ccc21	inactive	
Cc1ccc(S(=O)(=O)[N-]c2nc3ccccc3nc2-n2cc[n+](CCC(C)C)c2)cc1	inactive	
O=C(Nc1cc(-c2ccccc2)[nH]n1)c1ccccc1	inconclusive: 25.9 µM [cytotoxic, single point]	

Structure (SMILES)	Potency	activity change, negative = cytotoxicity
CNc1nnc(CSc2nc3ccccc3s2)s1	inconclusive: 13 µM [cytotoxic, partial curve]	
O=C(Nc1ccc(F)cc1)c1nc(S(=O)(=O)Cc2ccccc2)ncc1Cl	inconclusive: 29.1 µM [cytotoxic, single point]	
COC(=O)[C@]12CCCCC=C1N(Cc1ccccc1)C(=O)[C@H](CC(=O)NCc1cccs1)C2	inconclusive: 4.11 µM [cytotoxic, partial curve, poor fit]	
Fc1cccc(CSc2nnc3c(n2)[nH]c2ccccc23)c1	inactive	
CC(NC(=O)c1ccc(F)cc1)C(c1cccs1)N1CCN(C)CC1 (stereo not drawn)	inconclusive: 18.4 µM [cytotoxic, partial curve]	
O=C(NC1CCOC1=O)c1ccccc1 (stereo not drawn)	inactive	
COCCn1c(SCC(=O)c2[nH]c(C)c(C(C)=O)c2C)nc2ccccc21	active: 16.4 µM	
CCn1c(SCC(=O)N2CCOCC2)nc2sc3c(c2c1=O)CCCC3	inconclusive: 9.2 µM [cytotoxic, partial curve, poor fit]	
CCC(=O)c1ccc(OCC(=O)N(CC)CC(=O)Nc2ccccc2OC)cc1	active: 16.4 µM	
Cc1cccc(Cn2c(=O)n(CCCC(=O)NCc3ccco3)c(=O)c3ccccc32)c1	active: 14.6 µM	
Cc1cc(SCC(=O)c2ccc(O)c(O)c2)n2nc(C)c(-c3ccccc3)c2n1	inconclusive: 14.6 µM [cytotoxic, single point]	
CCOC(=O)c1c(-c2ccc(C)o2)csc1NC(=O)CN1CCN(CC)CC1	inactive	
Nc1cc(N)nc(SCC(=O)NCCC2=CCCCC2)n1	inconclusive: 16.4 µM [rising, single point]	
Cc1ccc2nc(NCc3ccccc3Cl)c3nnnn3c2c1	inactive	
CSc1ccc(CN(C)C(=O)C(Cc2ccccc2)NC(=O)c2ccccc2)cc1 (stereo not drawn)	inconclusive: 23.1 µM [cytotoxic, partial curve, poor fit]	
Cc1ccc(C(=O)NCCN2CCC(n3c(=O)[nH]c4ccccc43)CC2)cc1C		inconclusive: -21.1%
Clc1cccc(N2CCN(c3nnnn3-c3ccccc3)CC2)c1	inconclusive: 11.6 µM [cytotoxic, partial curve, poor fit]	
Cc1ccc2[nH]c3c(c2c1)CN(C(=O)CN1CCN(c2ccccn2)CC1)CC3	inconclusive: 9.2 µM [cytotoxic, partial curve, poor fit]	
O=C(ON=C1CCN(c2ccc([N+](=O)[O-])cc2)CC1)c1ccccc1	inconclusive: 18.4 µM [cytotoxic, partial curve, poor fit]	
Nc1cc(=O)[nH]c(=S)n1-c1cccc(C(F)(F)F)c1	inactive	
COc1cccc(Cc2nc3ccccc3nc2SCC(=O)N2CCCCC2C)c1 (stereo not drawn)		inconclusive: -37.2% [cytotoxic]
